# Test results: PubChem BioAssay AID1362 (SRMLSC, 2008)
# The list shows a part of the results.
# Assay: growth inhibition of WT strain, primary screen, mitochondrial fusion inhibitor project, WT and mutant strains, chemical genetic (AID 1362); note: tested in S. cerevisiae
# Conditions: mitochondrial fusion phenotypic screen, at 10 µM
row,SMILES,inhibition
1,CCOC(=O)N1CCC(Nc2ccc(OC)cc2)CC1,20%
2,O=C(OC1CN2CCC1CC2)C1c2ccccc2Oc2ccccc21 (centres undefined),-2.33%
3,COc1ccc(C(=O)NCC2(N3CCCCC3)CCCCC2)c(OC)c1OC,7.24%
4,COc1ccc(NC2CCN(CCc3ccccc3)CC2)c(OC)c1,2.65%
5,COc1ccc(NC2CCN(C(=O)OC(C)(C)C)CC2)cc1,-2.9%
6,CN1CCN(CCOC(=O)C(O)(c2ccccc2)c2ccccc2)CC1,18.6%
7,O=C(NCC1(N2CCOCC2)CCCCC1)c1cc(=O)[nH]c2ccccc12,-0.89%
8,O=C(NCC1(N2CCCCC2)CCCCC1)c1cccc([N+](=O)[O-])c1,10.5%
9,N#CC1(Nc2ccccc2)CCN(CCc2ccccc2)CC1,2.91%
10,COc1ccc(CN(CCCl)CCCl)cc1Cl,3.22%
11,CN(C)c1cccc(C(=O)NCC2(N3CCCCC3)CCCCC2)c1,6.79%
12,CC(C)c1ccc(NC2CCN(C(=O)OC(C)(C)C)CC2)cc1,4.2%
13,O=C(OC1CN2CCC1CC2)C1c2ccccc2C=Cc2ccccc21 (centres undefined),-5.49%
14,N/C(=N\O)c1c(N)no[n+]1[O-],20.7%
15,COc1ccc(C(=O)NCC2(N3CCOCC3)CCCCC2)cc1OC,1.7%
16,c1ccc(CN2CCC(Nc3ccccc3)CC2)cc1,22.8%
17,N#Cc1ccc(C(=O)NCC2(N3CCCCC3)CCCCC2)cc1,-14.3%
18,CN(C)c1ccc(C(=O)NCC2(N3CCCCC3)CCCCC2)cc1,6.44%
19,CCN1CCC(Nc2cccc(F)c2)CC1,-1.04%
20,Fc1ccccc1NC1CCN(Cc2ccccc2)CC1,2.88%
21,CCC(CO)(C(=O)OC1CN2CCC1CC2)c1ccccc1 (centres undefined),6.96%
22,COc1cc(OC)cc(C(=O)NCC2(N3CCOCC3)CCCCC2)c1,25.5%
23,CC(C)(C)OC(=O)N1CCC(Nc2ccccc2)CC1,21.6%
24,CCOc1ncccc1C(=O)NCC1(N2CCOCC2)CCCCC1,-11.6%
